In the supplement of paper PMC10849652:
The list shows a part of the results.

The chains behind the UniProt entries cited, without tags or fusion partners. Where a name states a change or a piece, a line headed by the entry shows the natural chain unless it says otherwise.
UniProt O60518: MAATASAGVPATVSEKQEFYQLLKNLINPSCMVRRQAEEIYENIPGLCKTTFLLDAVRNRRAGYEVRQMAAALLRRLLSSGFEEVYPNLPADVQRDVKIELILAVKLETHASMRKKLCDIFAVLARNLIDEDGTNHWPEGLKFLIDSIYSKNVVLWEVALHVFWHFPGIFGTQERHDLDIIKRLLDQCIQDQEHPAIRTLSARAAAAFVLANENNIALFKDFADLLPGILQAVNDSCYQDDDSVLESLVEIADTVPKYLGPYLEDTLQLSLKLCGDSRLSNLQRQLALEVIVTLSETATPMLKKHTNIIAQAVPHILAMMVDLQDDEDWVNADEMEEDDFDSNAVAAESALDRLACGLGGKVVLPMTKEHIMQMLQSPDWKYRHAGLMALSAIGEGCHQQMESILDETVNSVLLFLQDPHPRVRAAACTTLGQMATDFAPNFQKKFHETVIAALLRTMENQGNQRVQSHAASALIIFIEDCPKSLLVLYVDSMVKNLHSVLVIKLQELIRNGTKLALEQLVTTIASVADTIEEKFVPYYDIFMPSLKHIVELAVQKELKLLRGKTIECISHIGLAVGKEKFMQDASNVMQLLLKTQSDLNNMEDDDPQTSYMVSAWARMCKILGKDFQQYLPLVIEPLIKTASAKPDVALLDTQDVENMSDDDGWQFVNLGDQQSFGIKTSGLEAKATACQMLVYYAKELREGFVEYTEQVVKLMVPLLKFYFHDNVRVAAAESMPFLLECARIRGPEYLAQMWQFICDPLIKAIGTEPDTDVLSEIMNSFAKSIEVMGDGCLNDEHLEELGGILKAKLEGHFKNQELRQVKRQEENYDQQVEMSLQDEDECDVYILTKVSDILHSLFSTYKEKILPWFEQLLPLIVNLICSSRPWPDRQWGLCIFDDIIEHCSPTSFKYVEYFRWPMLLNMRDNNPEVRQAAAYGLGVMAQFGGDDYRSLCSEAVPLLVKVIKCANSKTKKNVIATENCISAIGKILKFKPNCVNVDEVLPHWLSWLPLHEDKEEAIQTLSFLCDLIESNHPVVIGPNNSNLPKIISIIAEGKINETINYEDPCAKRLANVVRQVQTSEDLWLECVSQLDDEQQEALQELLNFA
UniProt P61224: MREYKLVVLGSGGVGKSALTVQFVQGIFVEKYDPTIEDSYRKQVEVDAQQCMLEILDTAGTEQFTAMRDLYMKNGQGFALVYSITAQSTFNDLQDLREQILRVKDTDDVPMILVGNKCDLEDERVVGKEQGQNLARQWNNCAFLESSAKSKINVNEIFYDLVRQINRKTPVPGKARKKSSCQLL
UniProt Q13637: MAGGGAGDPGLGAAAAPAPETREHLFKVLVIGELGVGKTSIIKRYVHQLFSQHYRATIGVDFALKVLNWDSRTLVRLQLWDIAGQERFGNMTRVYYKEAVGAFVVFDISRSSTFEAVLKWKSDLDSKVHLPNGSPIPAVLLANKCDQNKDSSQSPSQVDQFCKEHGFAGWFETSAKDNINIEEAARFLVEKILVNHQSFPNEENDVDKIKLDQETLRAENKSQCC
UniProt P61225: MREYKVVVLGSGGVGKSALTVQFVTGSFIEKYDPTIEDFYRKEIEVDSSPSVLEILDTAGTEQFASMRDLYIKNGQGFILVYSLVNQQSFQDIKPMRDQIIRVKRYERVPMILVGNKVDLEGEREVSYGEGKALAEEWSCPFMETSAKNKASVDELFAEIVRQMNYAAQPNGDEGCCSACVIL
UniProt Q13636: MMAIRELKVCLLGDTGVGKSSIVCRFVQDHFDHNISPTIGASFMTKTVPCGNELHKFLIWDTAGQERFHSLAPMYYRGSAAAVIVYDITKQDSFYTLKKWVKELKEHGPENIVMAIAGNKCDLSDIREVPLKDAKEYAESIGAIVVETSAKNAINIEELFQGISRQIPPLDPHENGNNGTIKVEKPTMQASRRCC
UniProt P61106, whole entry, looked up: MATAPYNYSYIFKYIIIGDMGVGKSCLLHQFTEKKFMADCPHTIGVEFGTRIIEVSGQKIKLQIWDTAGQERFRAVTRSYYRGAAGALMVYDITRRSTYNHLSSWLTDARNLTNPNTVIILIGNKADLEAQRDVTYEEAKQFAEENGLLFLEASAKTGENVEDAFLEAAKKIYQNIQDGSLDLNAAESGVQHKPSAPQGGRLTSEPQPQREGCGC
UniProt P43487, whole entry, looked up: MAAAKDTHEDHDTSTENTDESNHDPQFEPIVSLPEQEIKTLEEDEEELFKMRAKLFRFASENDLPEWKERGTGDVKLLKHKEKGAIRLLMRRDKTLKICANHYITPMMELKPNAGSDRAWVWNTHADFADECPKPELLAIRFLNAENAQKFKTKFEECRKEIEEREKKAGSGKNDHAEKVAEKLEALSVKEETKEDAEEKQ
UniProt P20339: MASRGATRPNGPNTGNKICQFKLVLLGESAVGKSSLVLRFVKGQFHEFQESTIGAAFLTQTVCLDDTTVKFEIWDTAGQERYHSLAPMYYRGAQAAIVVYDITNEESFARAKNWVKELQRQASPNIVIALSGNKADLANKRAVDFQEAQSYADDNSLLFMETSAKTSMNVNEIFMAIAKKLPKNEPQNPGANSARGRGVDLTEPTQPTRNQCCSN
UniProt Q9NRW1: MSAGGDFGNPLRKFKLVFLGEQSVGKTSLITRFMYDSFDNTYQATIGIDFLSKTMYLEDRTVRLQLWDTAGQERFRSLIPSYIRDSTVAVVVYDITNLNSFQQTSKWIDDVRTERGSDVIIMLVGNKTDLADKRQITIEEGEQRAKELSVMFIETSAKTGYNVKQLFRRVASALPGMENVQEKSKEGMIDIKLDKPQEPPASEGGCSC
UniProt Q96PU8: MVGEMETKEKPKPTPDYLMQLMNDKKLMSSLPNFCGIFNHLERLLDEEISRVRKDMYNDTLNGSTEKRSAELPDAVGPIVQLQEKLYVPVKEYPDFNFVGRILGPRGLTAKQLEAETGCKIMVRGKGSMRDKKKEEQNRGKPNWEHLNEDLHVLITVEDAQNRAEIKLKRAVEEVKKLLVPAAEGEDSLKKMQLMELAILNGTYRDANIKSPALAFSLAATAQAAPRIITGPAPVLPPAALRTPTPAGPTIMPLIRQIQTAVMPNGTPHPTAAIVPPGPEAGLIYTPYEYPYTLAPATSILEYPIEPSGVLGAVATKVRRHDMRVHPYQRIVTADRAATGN
UniProt Q8WU10: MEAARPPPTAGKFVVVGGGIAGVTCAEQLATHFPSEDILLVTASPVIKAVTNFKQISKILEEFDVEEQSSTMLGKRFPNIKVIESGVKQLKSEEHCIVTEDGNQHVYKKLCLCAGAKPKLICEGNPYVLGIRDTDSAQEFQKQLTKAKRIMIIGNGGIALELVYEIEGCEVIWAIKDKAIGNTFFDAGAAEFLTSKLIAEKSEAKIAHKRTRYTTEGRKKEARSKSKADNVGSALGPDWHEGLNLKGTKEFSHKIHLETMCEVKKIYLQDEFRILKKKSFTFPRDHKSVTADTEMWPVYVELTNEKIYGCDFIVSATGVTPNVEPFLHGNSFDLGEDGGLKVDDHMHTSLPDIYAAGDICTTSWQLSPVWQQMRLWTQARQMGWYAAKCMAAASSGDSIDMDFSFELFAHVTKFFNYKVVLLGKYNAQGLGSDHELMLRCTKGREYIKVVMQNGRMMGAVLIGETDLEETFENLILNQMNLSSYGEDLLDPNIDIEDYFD
UniProt Q86X10: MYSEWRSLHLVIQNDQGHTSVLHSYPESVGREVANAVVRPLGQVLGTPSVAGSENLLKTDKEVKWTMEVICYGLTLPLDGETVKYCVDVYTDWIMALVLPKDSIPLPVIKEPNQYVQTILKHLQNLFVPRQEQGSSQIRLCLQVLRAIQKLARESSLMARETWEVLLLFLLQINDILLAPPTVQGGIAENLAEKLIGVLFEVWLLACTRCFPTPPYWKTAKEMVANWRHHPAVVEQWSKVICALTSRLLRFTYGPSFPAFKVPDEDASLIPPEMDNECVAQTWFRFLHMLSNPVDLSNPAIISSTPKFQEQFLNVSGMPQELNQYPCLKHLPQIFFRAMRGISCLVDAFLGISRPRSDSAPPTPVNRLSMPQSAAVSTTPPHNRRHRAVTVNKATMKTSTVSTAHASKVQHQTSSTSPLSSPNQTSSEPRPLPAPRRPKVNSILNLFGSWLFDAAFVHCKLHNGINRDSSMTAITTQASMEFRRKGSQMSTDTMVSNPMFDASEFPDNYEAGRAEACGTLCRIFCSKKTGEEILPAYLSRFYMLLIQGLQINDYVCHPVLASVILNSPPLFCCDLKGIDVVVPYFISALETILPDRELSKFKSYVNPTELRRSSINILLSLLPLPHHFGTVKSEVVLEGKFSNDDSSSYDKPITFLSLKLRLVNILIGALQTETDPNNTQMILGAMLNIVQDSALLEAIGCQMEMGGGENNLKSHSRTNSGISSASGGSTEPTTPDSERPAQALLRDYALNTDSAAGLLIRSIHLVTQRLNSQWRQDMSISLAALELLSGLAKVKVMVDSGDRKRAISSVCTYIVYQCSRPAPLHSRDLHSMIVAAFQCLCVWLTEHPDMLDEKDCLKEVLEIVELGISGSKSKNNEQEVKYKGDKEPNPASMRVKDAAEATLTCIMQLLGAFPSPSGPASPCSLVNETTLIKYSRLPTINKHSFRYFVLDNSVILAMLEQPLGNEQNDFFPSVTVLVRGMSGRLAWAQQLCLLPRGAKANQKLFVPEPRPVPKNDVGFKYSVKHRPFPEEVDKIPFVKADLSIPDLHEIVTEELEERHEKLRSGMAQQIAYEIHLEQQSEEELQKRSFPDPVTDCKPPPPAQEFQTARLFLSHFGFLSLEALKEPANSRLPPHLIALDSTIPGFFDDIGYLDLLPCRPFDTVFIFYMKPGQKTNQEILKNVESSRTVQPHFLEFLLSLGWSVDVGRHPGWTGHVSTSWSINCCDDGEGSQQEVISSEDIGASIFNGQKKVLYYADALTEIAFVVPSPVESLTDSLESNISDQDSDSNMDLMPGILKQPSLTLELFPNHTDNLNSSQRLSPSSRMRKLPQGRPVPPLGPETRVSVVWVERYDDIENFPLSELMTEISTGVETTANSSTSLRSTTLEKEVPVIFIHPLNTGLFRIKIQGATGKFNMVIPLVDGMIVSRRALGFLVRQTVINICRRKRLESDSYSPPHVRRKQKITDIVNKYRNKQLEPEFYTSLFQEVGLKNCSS
UniProt Q15042: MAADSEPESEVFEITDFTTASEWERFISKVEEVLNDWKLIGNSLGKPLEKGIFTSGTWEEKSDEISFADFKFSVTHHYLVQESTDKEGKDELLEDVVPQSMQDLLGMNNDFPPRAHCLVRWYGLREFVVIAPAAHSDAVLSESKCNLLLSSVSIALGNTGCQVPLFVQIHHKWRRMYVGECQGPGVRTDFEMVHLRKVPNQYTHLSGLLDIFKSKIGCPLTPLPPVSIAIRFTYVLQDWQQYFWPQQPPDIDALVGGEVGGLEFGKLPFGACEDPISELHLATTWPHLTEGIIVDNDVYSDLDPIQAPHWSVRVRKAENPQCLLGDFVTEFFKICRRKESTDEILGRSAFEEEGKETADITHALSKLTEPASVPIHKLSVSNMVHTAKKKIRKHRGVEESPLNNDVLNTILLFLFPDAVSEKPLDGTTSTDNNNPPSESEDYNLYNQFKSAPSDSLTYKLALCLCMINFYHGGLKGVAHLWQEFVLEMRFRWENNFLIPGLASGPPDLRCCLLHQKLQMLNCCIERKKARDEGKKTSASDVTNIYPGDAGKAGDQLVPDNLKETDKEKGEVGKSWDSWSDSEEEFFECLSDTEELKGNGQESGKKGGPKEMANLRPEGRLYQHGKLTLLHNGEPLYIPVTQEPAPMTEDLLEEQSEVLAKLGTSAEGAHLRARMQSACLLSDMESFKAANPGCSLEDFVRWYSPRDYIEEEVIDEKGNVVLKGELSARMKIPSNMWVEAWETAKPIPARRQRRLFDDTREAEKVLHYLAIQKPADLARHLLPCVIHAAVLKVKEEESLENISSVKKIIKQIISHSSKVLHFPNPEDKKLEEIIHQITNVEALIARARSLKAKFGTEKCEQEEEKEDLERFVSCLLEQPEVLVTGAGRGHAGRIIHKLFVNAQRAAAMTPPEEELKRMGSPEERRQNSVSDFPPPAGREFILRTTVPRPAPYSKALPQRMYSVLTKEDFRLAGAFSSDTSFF
UniProt P20338: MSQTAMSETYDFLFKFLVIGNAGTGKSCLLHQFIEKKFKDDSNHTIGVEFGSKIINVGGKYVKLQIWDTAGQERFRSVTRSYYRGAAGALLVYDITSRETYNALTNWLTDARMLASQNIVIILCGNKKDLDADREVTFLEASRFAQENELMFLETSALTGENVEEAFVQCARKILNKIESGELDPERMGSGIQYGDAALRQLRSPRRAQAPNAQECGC
UniProt Q9BTL3: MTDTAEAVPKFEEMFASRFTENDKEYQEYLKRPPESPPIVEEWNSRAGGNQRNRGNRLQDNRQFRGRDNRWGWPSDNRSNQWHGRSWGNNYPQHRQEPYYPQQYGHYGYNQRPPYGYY
UniProt Q9UL26: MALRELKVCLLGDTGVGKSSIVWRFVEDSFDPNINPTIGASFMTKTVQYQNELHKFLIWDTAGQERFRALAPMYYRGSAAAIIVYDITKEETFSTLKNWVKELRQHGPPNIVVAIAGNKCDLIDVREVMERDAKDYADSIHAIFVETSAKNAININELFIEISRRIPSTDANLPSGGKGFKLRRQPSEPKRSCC

What was measured:
Experiment in all cases: log2 fold change, soluble protein after heating vs DMSO (PISA); higher = thermal stabilisation; K562 lysate, 10 uM; active = over 0.2 and 3.5 SD of the protein, either way, in both replicates (recomputed)
[1] = compound: Cc1cn(-c2cc(NC(=O)c3ccc(C)c(Nc4nccc(-c5cccnc5)n4)c3)cc(C(F)(F)F)c2)cn1 [nilotinib]
Procedure, shortened: (§1)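 K562 pellets were dounce-homogenised in PBS pH 7.4 with 1 mM MgCl2, and the crude extract at 1 mg/mL protein was treated with 10 μM compound for 30 min. Aliquots were heated for 3 min across 48°C-58°C, pooled, and brought to 0.5% NP-40 at 4°C; soluble protein was the supernatant after 21,000xg for 90 min. Soluble protein was quantified by TMTpro 16plex LC-MS/MS with channel sums equalised, and reported as log2 fold change in thermal stability against DMSO controls, with values from duplicates.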

[2] = compound: Cc1nc(Nc2n[nH]c3c2CN(C(=O)N[C@H](CN(C)C)c2ccccc2)C3(C)C)c2sccc2n1
Procedure, shortened: as §1

[3] = compound: Cc1nc(Nc2ncc(C(=O)Nc3c(C)cccc3Cl)s2)cc(N2CCN(CCO)CC2)n1 [dasatinib]
Procedure, shortened: as §1

[4] = compound: Cc1ncc(-c2ccnc(Nc3ccc(S(C)(=O)=O)cc3)n2)n1C(C)C
Procedure, shortened: as §1

[5] = compound: Cn1cc(-c2ccc3c(c2)CCN3C(=O)Cc2cccc(C(F)(F)F)c2)c2c(N)ncnc21
Procedure, shortened: as §1

[6] = compound: Cn1cc(CNCC2CCN(c3ncc(C(=O)NO)cn3)CC2)c2ccccc21 [quisinostat]
Procedure, shortened: as §1

[7] = compound: Cn1cncc1[C@@](N)(c1ccc(Cl)cc1)c1ccc2c(c1)c(-c1cccc(Cl)c1)cc(=O)n2C [tipifarnib]
Procedure, shortened: as §1

[8] = compound: NC(=O)Nc1cc(-c2cccc(F)c2)sc1C(=O)N[C@H]1CCCNC1
Procedure, shortened: as §1

[9] = compound: NC(=O)c1cnc(N[C@@H]2CCCC[C@@H]2N)nc1Nc1cccc(-n2nccn2)c1
Procedure, shortened: as §1

[10] = compound: NC1(c2ccc(-c3nc4ccn5c(=O)[nH]nc5c4cc3-c3ccccc3)cc2)CCC1
Procedure, shortened: as §1

Measured: log2 fold change

PYCR1 (UniProt J3QKT4)
inactive: [1] -0.052 | [2] -0.101 | [3] -0.176 | [4] 0.037 | [5] -0.067 | [6] 0.005 | [7] -0.044 | [8] 0.045 | [9] 0.07 | [10] -0.089

RANBP6 (UniProt O60518)
inactive: [1] 0.039 | [2] -0.036 | [3] -0.002 | [4] -0.071 | [5] 0.049 | [6] -0.063 | [7] -0.072 | [8] 0.055 | [9] 0.062 | [10] -0.06

RAP1B (UniProt P61224)
inactive: [1] 0.032 | [2] 0 | [3] 0.045 | [4] 0.027 | [5] -0.002 | [6] -0.007 | [7] -0.034 | [8] -0.007 | [9] -0.029 | [10] -0.025

RAB32 (UniProt Q13637)
inactive: [1] 0.021 | [2] -0.042 | [3] 0.04 | [4] 0.018 | [5] 0.043 | [6] -0.036 | [7] 0.064 | [8] -0.027 | [9] -0.023 | [10] -0.032

RAC1 isoform 2 (UniProt P63000)
inactive: [1] 0.001 | [2] 0.001 | [3] -0.012 | [4] -0.023 | [5] -0.014 | [6] 0.162 | [7] -0.002 | [8] -0.076 | [9] -0.028 | [10] 0.013

PXN isoform 3 (UniProt P49023)
inactive: [1] 0.037 | [2] 0.035 | [3] -0.026 | [4] 0.061 | [5] -0.065 | [6] -0.008 | [7] -0.01 | [8] -0.003 | [9] -0.029 | [10] -0.037

RAB3GAP2 (UniProt Q9H2M9)
inactive: [1] 0.001 | [2] 0.001 | [3] -0.05 | [4] -0.002 | [5] 0.044 | [6] 0.001 | [7] -0.023 | [8] 0.003 | [9] 0.02 | [10] -0.012

RAP2B (UniProt P61225)
inactive: [1] -0.009 | [2] -0.02 | [3] 0.058 | [4] -0.019 | [5] 0.009 | [6] 0.076 | [7] 0.038 | [8] -0.048 | [9] 0.013 | [10] -0.024

RANBP2 (UniProt P49792)
inactive: [1] -0.018 | [2] 0.001 | [3] -0.059 | [4] 0.006 | [5] 0.021 | [6] -0.05 | [7] -0.055 | [8] 0.046 | [9] 0.007 | [10] -0.003

RANBP3 (UniProt Q9H6Z4)
inactive: [1] 0.022 | [2] -0.011 | [3] 0.022 | [4] 0.006 | [5] -0.016 | [6] -0.014 | [7] -0.011 | [8] -0.02 | [9] -0.05 | [10] -0.016

RAB31 (UniProt Q13636)
inactive: [1] 0 | [2] 0.023 | [3] 0.033 | [4] 0.001 | [5] 0.04 | [6] 0.021 | [7] -0.073 | [8] -0.052 | [9] 0.015 | [10] -0.022

RAB14 (UniProt P61106)
inactive: [1] -0.014 | [2] -0.01 | [3] -0.058 | [4] -0.004 | [5] -0.03 | [6] -0.031 | [7] -0.078 | [8] 0.013 | [9] 0 | [10] -0.03

RAD23A (UniProt P54725)
inactive: [1] -0.032 | [2] 0.042 | [3] 0.02 | [4] -0.05 | [5] -0.01 | [6] 0 | [7] -0.02 | [8] -0.009 | [9] 0.007 | [10] 0.026

RAD50 isoform 2 (UniProt Q92878)
inactive: [1] -0.004 | [2] 0.016 | [3] -0.042 | [4] -0.003 | [5] 0.026 | [6] -0.031 | [7] -0.02 | [8] 0.016 | [9] 0.005 | [10] 0.001

RANBP1 (UniProt P43487)
inactive: [1] 0.01 | [2] -0.026 | [3] -0.008 | [4] -0.003 | [5] 0.004 | [6] 0.039 | [7] 0.018 | [8] -0.061 | [9] -0.012 | [10] 0.056

RAB5A (UniProt P20339)
inactive: [1] 0.005 | [2] 0.022 | [3] -0.021 | [4] 0.051 | [5] -0.087 | [6] -0.108 | [7] -0.032 | [8] -0.003 | [9] -0.013 | [10] -0.049

RAB6B (UniProt Q9NRW1)
inactive: [1] 0.023 | [2] 0.028 | [3] -0.022 | [4] -0.024 | [5] -0.005 | [6] -0.024 | [7] -0.018 | [8] 0.035 | [9] -0.035 | [10] 0.026

QKI (UniProt Q96PU8)
inactive: [1] -0.053 | [2] 0.006 | [3] -0.02 | [4] 0.062 | [5] -0.038 | [6] -0.013 | [7] -0.024 | [8] 0.055 | [9] -0.005 | [10] -0.008

PYROXD1 (UniProt Q8WU10)
inactive: [1] 0.002 | [2] 0.053 | [3] 0 | [4] -0.178 | [5] 0.015 | [6] 0.086 | [7] 0.218 | [8] -0.013 | [9] 0.055 | [10] 0.005

RAP1B (UniProt F5GZG1)
inactive: [1] 0.012 | [2] -0.066 | [3] 0.05 | [4] -0.253 | [5] 0.047 | [6] -0.011 | [7] -0.058 | [8] 0.087 | [9] -0.019 | [10] -0.029

RAB6A isoform 4 (UniProt P20340)
inactive: [1] 0.016 | [2] 0.025 | [3] -0.002 | [4] 0.035 | [5] 0 | [6] 0.004 | [7] -0.071 | [8] 0.014 | [9] -0.011 | [10] -0.042

RAB3A (UniProt P20336)
inactive: [1] 0.002 | [2] 0.029 | [3] -0.073 | [4] 0.008 | [5] 0.002 | [6] 0.142 | [7] 0.034 | [8] -0.071 | [9] -0.027 | [10] 0.019

RALGAPB (UniProt Q86X10)
inactive: [1] -0.022 | [2] 0.029 | [3] -0.026 | [4] 0.026 | [5] 0.015 | [6] -0.048 | [7] -0.021 | [8] 0.053 | [9] -0.019 | [10] -0.044

Quoted from the listing (5 entries):
QKI (UniProt Q96PU8)
inactive: [1] -0.053 | [2] 0.006 | [3] -0.02 | [4] 0.062 | [5] -0.038 | [6] -0.013 | [7] -0.024 | [8] 0.055 | [9] -0.005 | [10] -0.008

PYROXD1 (UniProt Q8WU10)
inactive: [1] 0.002 | [2] 0.053 | [3] 0 | [4] -0.178 | [5] 0.015 | [6] 0.086 | [7] 0.218 | [8] -0.013 | [9] 0.055 | [10] 0.005

RAP1B (UniProt F5GZG1)
inactive: [1] 0.012 | [2] -0.066 | [3] 0.05 | [4] -0.253 | [5] 0.047 | [6] -0.011 | [7] -0.058 | [8] 0.087 | [9] -0.019 | [10] -0.029

RAB6A isoform 4 (UniProt P20340)
inactive: [1] 0.016 | [2] 0.025 | [3] -0.002 | [4] 0.035 | [5] 0 | [6] 0.004 | [7] -0.071 | [8] 0.014 | [9] -0.011 | [10] -0.042

RAB3A (UniProt P20336)
inactive: [1] 0.002 | [2] 0.029 | [3] -0.073 | [4] 0.008 | [5] 0.002 | [6] 0.142 | [7] 0.034 | [8] -0.071 | [9] -0.027 | [10] 0.019

Next part:

RAB3GAP1 (UniProt Q15042)
inactive: [1] 0.01 | [2] 0.006 | [3] -0.058 | [4] 0.006 | [5] 0.026 | [6] -0.022 | [7] -0.041 | [8] 0.009 | [9] -0.002 | [10] -0.017

RAB4A (UniProt P20338)
inactive: [1] 0.09 | [2] 0.008 | [3] 0.015 | [4] 0.003 | [5] 0.023 | [6] 0 | [7] -0.037 | [8] -0.104 | [9] -0.049 | [10] 0.026

RAD18 (UniProt Q9NS91)
inactive: [1] -0.015 | [2] 0.005 | [3] -0.04 | [4] -0.002 | [5] 0 | [6] 0.009 | [7] -0.012 | [8] -0.01 | [9] 0.025 | [10] 0.031

QPRT (UniProt Q15274)
inactive: [1] 0.016 | [2] -0.007 | [3] -0.033 | [4] 0.025 | [5] -0.006 | [6] 0.045 | [7] -0.011 | [8] -0.062 | [9] 0.003 | [10] -0.004

RAMAC (UniProt Q9BTL3)
inactive: [1] -0.049 | [2] 0.036 | [3] 0.045 | [4] 0.069 | [5] 0.017 | [6] 0.118 | [7] -0.022 | [8] -0.011 | [9] -0.042 | [10] 0.05

RAC2 (UniProt P15153)
inactive: [1] -0.025 | [2] -0.076 | [3] -0.068 | [4] 0.015 | [5] -0.093 | [6] 0.021 | [7] 0 | [8] 0.001 | [9] 0.04 | [10] 0.017

RAB22A (UniProt Q9UL26)
inactive: [1] -0.009 | [2] -0.016 | [3] -0.056 | [4] 0.029 | [5] -0.053 | [6] 0.013 | [7] -0.025 | [8] -0.013 | [9] 0.047 | [10] -0.053
